Data as given in PubChem BioAssay AID504786 (Drosophila RNAi Screening Center, 2011)

Screen: 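Knock-downs reducing HIF reporter induction by the iron chelator DFO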 (primary screen)
Cell system: Drosophila S2 cells with a stable HIF luciferase reporter
Reagent: long dsRNA against Drosophila genes, about 0.2 µg dsRNA per well of a 384-well plate
Timing: three days of knock-down, then 20 h of DFO before reading
Treatment: desferrioxamine (DFO) at 100 µM, an iron chelator that mimics hypoxia, for 20 h
Measurement: 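HIF reporter luminescence in cells given 100 µM DFO for 20 h, using the mouse ldh-a hypoxia-response element, scored as per-plate z-scores; higher means greater loss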
Scale: z-score: higher = stronger loss of HIF reporter signal
In all, the deposit lists about 21,000 reagents; this is a random part of those that have a named target and a result. 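Primary screen; positive scores mean lost reporter signal, so the sign may be inverted from the usual convention.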 Names joined by + are all predicted targets of the reagent.

For CG34054 [DRSC05277], what does the deposit list?
z-score, replicate 1: -0.2; z-score, replicate 2: -0.1

For alpha-Est4 [DRSC12616], what does the deposit list?
z-score, replicate 1: -0.4; z-score, replicate 2: -0.1

With lace [DRSC03564], what was measured?
z-score, replicate 1: -0.4; z-score, replicate 2: -0.2

How did the screen score bun [DRSC01253]?
z-score, replicate 1: 1; z-score, replicate 2: 0.4

How did the screen score bun [DRSC01255]?
z-score, replicate 1: 0.3; z-score, replicate 2: 0.7

What is on record for bun [DRSC03500]?
z-score, replicate 1: 1.8; z-score, replicate 2: 2.7

Which result is listed for Osi11 [DRSC12282]?
z-score, replicate 1: -0.2; z-score, replicate 2: 0.4

Which result is listed for ppk31 [DRSC13811]?
z-score, replicate 1: -0.4; z-score, replicate 2: -0.1

For tefu [DRSC16060], what does the deposit list?
z-score, replicate 1: -0.5; z-score, replicate 2: -0.1

Which result is listed for TwdlZ [DRSC19154]?
z-score, replicate 1: -0.2; z-score, replicate 2: -0.4

For dom [DRSC04558], what was measured?
z-score, replicate 1: 2; z-score, replicate 2: 2.1

For dom [DRSC04559], what was measured?
z-score, replicate 1: 0; z-score, replicate 2: 1.2

With Arp2 [DRSC19332], how do the results read?
z-score, replicate 1: 0.2; z-score, replicate 2: -1

How did the screen score Ptpmeg [DRSC08684]?
z-score, replicate 1: -0.2; z-score, replicate 2: -0.1

What did the screen give for Taf10b + Taf10 [DRSC00793]?
z-score, replicate 1: 0; z-score, replicate 2: -0.4

Which result is listed for CG15219 [DRSC03715]?
z-score, replicate 1: -0.3; z-score, replicate 2: -0.3

With CG14971 [DRSC08430], what was measured?
z-score, replicate 1: -0.3; z-score, replicate 2: -0.5

What did the screen give for Mlf [DRSC07472]?
z-score, replicate 1: 0.7; z-score, replicate 2: 3.4

In a second layout: results already given
| Target gene | DRSC id | z-score, replicate 1 | z-score, replicate 2 |
| --- | --- | --- | --- |
| dom | DRSC04559 | 0 | 1.2 |
| Arp2 | DRSC19332 | 0.2 | -1 |
| Ptpmeg | DRSC08684 | -0.2 | -0.1 |
| Taf10b + Taf10 | DRSC00793 | 0 | -0.4 |
| CG15219 | DRSC03715 | -0.3 | -0.3 |
| CG14971 | DRSC08430 | -0.3 | -0.5 |
| Mlf | DRSC07472 | 0.7 | 3.4 |

Continued:
With CG5043 [DRSC02805], how do the results read?
z-score, replicate 1: -0.1; z-score, replicate 2: -0.3

How did the screen score kl-2 [DRSC21136]?
z-score, replicate 1: -0.3; z-score, replicate 2: -0.1

With CG8870 [DRSC16452], what was measured?
z-score, replicate 1: -0.3; z-score, replicate 2: 1.6

For Tmtc3 [DRSC04444], what does the deposit list?
z-score, replicate 1: -0.1; z-score, replicate 2: 0.5

How did the screen score Nap1 [DRSC04626]?
z-score, replicate 1: -0.3; z-score, replicate 2: -0.7

With Hecw [DRSC18261], what was measured?
z-score, replicate 1: -0.2; z-score, replicate 2: -1

With Hecw [DRSC18276], what was measured?
z-score, replicate 1: 0; z-score, replicate 2: -0.3

With ReepB [DRSC07150], how do the results read?
z-score, replicate 1: -0.4; z-score, replicate 2: -0.7

What is on record for CG15537 [DRSC15073]?
z-score, replicate 1: -0.5; z-score, replicate 2: 0.2

Which result is listed for CG17233 [DRSC10259]?
z-score, replicate 1: 0.4; z-score, replicate 2: 0.8

Which result is listed for CG4914 [DRSC10458]?
z-score, replicate 1: -0.2; z-score, replicate 2: -0.4

Which result is listed for Elp2 [DRSC06095]?
z-score, replicate 1: -0.1; z-score, replicate 2: -0.1

For CG12069 [DRSC14470], how do the results read?
z-score, replicate 1: -0.3; z-score, replicate 2: -0.3

With CG31189 [DRSC16198], what does the deposit list?
z-score, replicate 1: -0.5; z-score, replicate 2: -0.2

What is on record for CG13579 [DRSC04215]?
z-score, replicate 1: -0.3; z-score, replicate 2: -0.1

What is on record for CG6005 [DRSC15945]?
z-score, replicate 1: -0.1; z-score, replicate 2: 0.1

With DNaseII [DRSC16310], what was measured?
z-score, replicate 1: -0.1; z-score, replicate 2: -0.2

For NimA [DRSC01353], what does the deposit list?
z-score, replicate 1: -0.1; z-score, replicate 2: 0.3

For wmd [DRSC04436], what was measured?
z-score, replicate 1: -0.4; z-score, replicate 2: -0.7

With Dhfr [DRSC16646], how do the results read?
z-score, replicate 1: -0.3; z-score, replicate 2: 0.2

Which result is listed for Nab2 [DRSC14158]?
z-score, replicate 1: -0.2; z-score, replicate 2: 0.2

How did the screen score fry [DRSC08993]?
z-score, replicate 1: 0.1; z-score, replicate 2: -0.1

How did the screen score fry [DRSC10172]?
z-score, replicate 1: -0.3; z-score, replicate 2: -0.4

What did the screen give for fry [DRSC10709]?
z-score, replicate 1: -0.3; z-score, replicate 2: -0.4

For fry [DRSC10712], what was measured?
z-score, replicate 1: 0.1; z-score, replicate 2: 1
